# Results published in PubChem BioAssay AID504648 (National Center for Advancing Translational Sciences (NCATS), 2011).
# Among all 390,000 compounds or so, about 610 (0.16%) were called active. The inconclusive results got no clear call from the source; some entries with a clear call stand among them for comparison. The call rests on the fitted dose curve; in most records, active means well fitted inhibition curve with a large enough effect; inconclusive means small, poorly fitted or top-dose-only effect, or effect the other way, or another doubt; inactive means no such curve, though single readings can be large or run the other way. A potency beside an inconclusive call is a rough fit, not a confirmed value.
# Assay: Nrf2 qHTS screen for inhibitors: counterscreen for cytotoxicity
# Conditions: A549 ARE-Fluc cells, CellTiter-Fluor viability, 18-24 h; series mostly up to 46 µM
# Method in brief: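 Cytotoxicity counterscreen: CellTiter-Fluor fluorescence was measured in A549 ARE_Fluc cells after 18-24 h of compound exposure in a concentration series. The subsequent BugLite luminescent read reports ARE-luciferase activity.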
# Potency means the concentration at half of the fitted maximal effect.
row,SMILES,Potency
1,Cc1ccccc1NCC(=O)N=Nc1c(O)[nH]c2ccc([N+](=O)[O-])cc12,"inconclusive: 29.1 µM [falling, single point]"
2,COc1ccc(CNS(=O)(=O)c2cnc(N)nc2)c(OC)c1,inactive
3,CC1CCN(C(=S)c2ccc(-c3ccc(Cl)cc3Cl)o2)CC1,"inconclusive: 32.6 µM [activator, partial curve, poor fit]"
4,CN(C)c1ccc(C=C2SC(=S)NC2=O)cc1,"inconclusive: 11.6 µM [falling, partial curve, poor fit]"
5,O=C1/C(=C/c2ccco2)CCC1C1CCCC1 (stereo not drawn),inactive
6,COc1ccc(C2c3ccc4ccccc4c3Oc3ncn(Cc4ccco4)c(=N)c32)cc1OC (stereo not drawn),"inconclusive: 29.1 µM [falling, single point]"
7,Nc1nonc1C(=O)NCCNCc1cc(Br)ccc1OCc1ccc(F)cc1,"inconclusive: 25.9 µM [falling, partial curve, poor fit]"
8,Cc1ccc(Cl)cc1N1CCN(Cc2nc3c(c(=O)[nH]c(=O)n3C)n2Cc2ccccc2F)CC1,inactive
9,Cc1ccc(C)c(N2CCN(CCCNC(=O)c3cnn(-c4ccccc4Cl)c3C3CCN(C(=O)OC(C)(C)C)CC3)CC2)c1,"inconclusive: 29.1 µM [falling, single point]"
10,O=C(CSc1nnc(CNC(=O)c2cccc(F)c2)n1-c1ccccc1)Nc1ccccc1F,inactive
11,Cc1nn(Cc2ccccc2)c(C)c1CNC(=O)CN=C1NS(=O)(=O)c2ccccc21,inactive
12,COc1ccc2c(CNCc3cccs3)c(C(=O)O)n(Cc3ccccc3)c2c1,"inconclusive: 18.4 µM [falling, partial curve, poor fit]"
13,CCOC(=O)Cn1c(=NC(=O)C(C)C)sc2c(C)cc(C)cc21,"inconclusive: 18.4 µM [falling, partial curve, poor fit]"
14,O=[N+]([O-])c1cccc(N/N=C/c2cc([N+](=O)[O-])ccc2O)c1,"inconclusive: 29.1 µM [falling, single point]"
15,COc1ccc(CN(C)Cc2nc(Cc3cccc(F)c3)no2)c2cccnc12,"inconclusive: 18.4 µM [falling, partial curve, poor fit]"
16,COc1cc(C2N(c3ccc(Cl)c(Cl)c3)C(=O)C3CCCN32)cc(OC)c1OC (stereo not drawn),"inconclusive: 5.17 µM [activator, full curve, poor fit]"
17,CCOc1cccc(C(=O)Nc2cccc(-c3nnc(-c4ccccc4)o3)c2)c1,inactive
18,CC(=O)c1ccc(S(=O)(=O)N(C)CC(=O)NCC2CCCCC2)cc1,inactive
19,C[C@]12c3[nH]c4ccccc4c3CCN1C(=O)C(CC(=O)NCC13CC4CC(CC(C4)C1)C3)C[C@@H]2C(=O)N1CCOCC1 (stereo partly drawn),inactive
20,CCN(CC)CC(=O)N1N=C(c2cccs2)CC1c1ccco1 (stereo not drawn),inactive
21,Cc1nc2c(C(=O)NC(C)c3ccccc3)cnn2c(C)c1Cc1ccccc1 (stereo not drawn),inactive
22,N#Cc1nc(Nc2cc(F)cc(F)c2)nc(NC2CCCC2)n1,"inconclusive: 29.1 µM [falling, single point]"
23,Cc1cccc(-n2nc([N+](=O)[O-])c(=NC3CCN(Cc4ccccc4)CC3)n2O)c1,"inconclusive: 32.6 µM [falling, partial curve, poor fit]"

# Rewritten bar-delimited: part of the list above.
row | SMILES | Potency
1 | Cc1ccccc1NCC(=O)N=Nc1c(O)[nH]c2ccc([N+](=O)[O-])cc12 | inconclusive: 29.1 µM [falling, single point]
4 | CN(C)c1ccc(C=C2SC(=S)NC2=O)cc1 | inconclusive: 11.6 µM [falling, partial curve, poor fit]

# Following part

row,SMILES,Potency
1,Cn1cnnc1SCC(=O)N1CCN(C(=O)c2ccco2)CC1,"inconclusive: 16.4 µM [falling, partial curve, poor fit]"
2,O=C1c2ccccc2NC(c2cc(Br)c3c(c2)OCO3)N1Cc1ccco1 (stereo not drawn),inactive
3,COc1ccc(OC)c(NS(=O)(=O)c2ccc(N3CCCC3=O)cc2)c1,"inconclusive: 0.82 µM [falling, partial curve, poor fit]"
4,CC(=O)NC1=NN(C(C)=O)C(C)(c2cccs2)S1 (stereo not drawn),"inconclusive: 5.8 µM [falling, full curve]"
5,COc1cc2cc(CN(CCCO)S(=O)(=O)c3ccccc3Cl)c(=O)[nH]c2cc1OC,inactive
6,COc1ccc(C[C@@H]2CN3C(=NC[C@@H]3Cc3ccc(O)cc3)N2C[C@H](C)NC(=O)CCC2CCCCC2)cc1,"inconclusive: 29.1 µM [falling, single point]"
7,CCN(CCCNC(=O)Cn1cc2c(n1)CCCC2)c1cccc(C)c1,"inconclusive: 1.46 µM [activator, full curve, poor fit]"
8,CCN1C(=O)/C(=C2/Sc3ccccc3N2CC)S/C1=N\c1ncn[nH]1,"inconclusive: 8.2 µM [falling, partial curve, poor fit]"
9,Cc1cccc(-n2c(O)c(C=Nc3ccc(O)cc3)c3ccccc3c2=O)n1,"inconclusive: 7.31 µM [falling, partial curve, poor fit]"
10,S=C(NCCCCN(Cc1ccc(Cl)cc1)c1ccc(Br)cn1)NCCCc1cnc[nH]1,inactive
11,CN(C)S(=O)(=O)c1cccc(NC(=S)Nc2ccc(Cl)cc2Cl)c1,"inconclusive: 32.6 µM [activator, partial curve, poor fit]"
12,O=[N+]([O-])c1ccc(O)c(/C=N/Nc2nn[nH]n2)c1,inactive
13,COc1ccc(S(=O)(=O)N(c2onc(C)c2Cl)S(=O)(=O)c2ccc(OC)c(OC)c2)cc1OC,inactive
14,CC1(C)Cc2c(sc3c2c(=N)n(Cc2ccco2)c(=O)n3CC(=O)Nc2ccc(Cl)cc2)CO1,"inconclusive: 23.1 µM [falling, partial curve, poor fit]"
15,O=[N+]([O-])c1ccc(Sc2nnnn2-c2ccccc2)nc1,"inconclusive: 6.51 µM [falling, partial curve, poor fit]"
16,O=C(Cc1csc(-c2ccc(Cl)cc2)n1)Nc1cccc(S(=O)(=O)NC2=NCCC2)c1,"inconclusive: 32.6 µM [falling, partial curve, poor fit]"
17,O=C(Nc1cccc(S(=O)(=O)NC2=NCCC2)c1)c1cc(-c2ccco2)nc2ccccc12,"inconclusive: 0.0041 µM [falling, full curve, poor fit]"
18,COc1ccc(Nc2ncnc3sc(-c4ccccc4)cc23)cc1OC,"inconclusive: 29.1 µM [falling, partial curve, poor fit]"
19,COc1ccc2[nH]cc(/C=C/c3cc[n+](C)cc3)c2c1,"inconclusive: 20.6 µM [falling, partial curve, poor fit]"
20,S=C(NCc1cccs1)Nc1cc(Cl)cc(Cl)c1,"inconclusive: 0.0052 µM [falling, partial curve, poor fit]"
21,Cc1sc2ncnc(N3CCC(C(=O)N(C)CC(=O)Nc4ccc(Cl)c(C(F)(F)F)c4)CC3)c2c1C,"inconclusive: 8.2 µM [falling, partial curve]"
22,CCOC(=O)C(=Cc1ccc(-n2ccnc2)cc1)C(=O)OCC,"inconclusive: 29.1 µM [falling, single point]"
23,COCCNC(=O)CN1C(=O)NC2(CCCc3cc(OC)ccc32)C1=O (stereo not drawn),inactive

row,SMILES,Potency
1,O=C(CSc1nc2ccccc2n1Cc1ccccc1Cl)NCc1ccccc1,inactive
2,Cc1ccc(NC(=O)CN(C)S(=O)(=O)c2cccc3nsnc23)cc1C,inactive
3,Cc1cccc(-n2nnnc2S(C)(=O)=O)c1,"inconclusive: 29.1 µM [falling, single point]"
4,Cc1ccc(NC(=O)[C@H](Cc2c[nH]c3ccccc23)NC(=O)[C@@H]2Cc3ccccc3CN2)c(C)c1,"inconclusive: 18.4 µM [falling, single point]"
5,COc1ccc(NC(=O)c2ccc(COc3ccccc3OC)o2)cc1OC,inactive
6,CCn1c(C)cc(/C=C2/NC(=O)N(c3ccccc3)C2=O)c1C,"inconclusive: 16.4 µM [falling, partial curve, poor fit]"
7,Cc1c(NC(=O)c2ccccc2F)cccc1-c1nc2cccnc2s1,inactive
8,CCOc1ccc(Nc2cc(C)nc3nc(C)nn23)cc1,"inconclusive: 25.9 µM [activator, single point]"
9,CC1Cc2ccccc2N1CC(=O)Nc1ccc(Cl)c(S(=O)(=O)N(C)C)c1 (stereo not drawn),inactive
10,O=C1c2ccccc2C(=O)c2c1ncn2-c1ccccc1,inactive
11,Cn1nnnc1Sc1ncnc2scc(-c3cccc(C(F)(F)F)c3)c12,"inconclusive: 29.1 µM [falling, single point]"
12,Nc1nc(-c2ccco2)c(-c2ccco2)s1,inactive
13,Cc1ccc(-c2onc(C)c2C)cc1S(=O)(=O)NC1CCCCC1,"inconclusive: 25.9 µM [falling, partial curve, poor fit]"
14,Cc1ccc2nc(-c3ccc(Cl)c(NC(=O)c4ccc(Br)o4)c3)oc2c1,inactive
15,CSc1nc(N(C)NC(=O)c2ccc(F)cc2)c2ccccc2n1,"inconclusive: 5.17 µM [falling, partial curve, poor fit]"
16,CC(C)C1N=C2c3ccccc3N=C(SCC#N)N2C1=O (stereo not drawn),inactive
17,O=C(Nc1ccc(F)cc1F)c1sccc1SCc1cccc(C(F)(F)F)c1,"inconclusive: 18.4 µM [activator, partial curve, poor fit]"
18,COC(=O)c1ccccc1NC(=O)c1cc[n+](C)cc1,inactive
19,N#Cc1c(C(F)(F)F)cc(-c2cccs2)nc1SCc1cccnc1,"inconclusive: 18.4 µM [falling, single point]"
20,Cc1ccc(Cl)cc1NC(=O)c1cc(S(=O)(=O)N2CCCCCC2)cn1C,inactive
21,CCc1ccc2c(c1)NC(c1cccnc1)=NC(c1ccc(C(C)(C)C)cc1)=N2,"inconclusive: 29.1 µM [falling, single point]"
22,O=C(Nc1nc(-c2ccccn2)cs1)c1cc(Cl)ccc1[N+](=O)[O-],"inconclusive: 0.651 µM [falling, full curve]"

# Ordered by number of heavy atoms (rising): some entries from above.
row,SMILES,Potency
3,Cc1cccc(-n2nnnc2S(C)(=O)=O)c1,"inconclusive: 29.1 µM [falling, single point]"
22,O=C(Nc1nc(-c2ccccn2)cs1)c1cc(Cl)ccc1[N+](=O)[O-],"inconclusive: 0.651 µM [falling, full curve]"
20,Cc1ccc(Cl)cc1NC(=O)c1cc(S(=O)(=O)N2CCCCCC2)cn1C,inactive
